Our source for the binding values is PMC11041666.

Amino acid sequences for entries named in this document (tags omitted).
UniProt P97414: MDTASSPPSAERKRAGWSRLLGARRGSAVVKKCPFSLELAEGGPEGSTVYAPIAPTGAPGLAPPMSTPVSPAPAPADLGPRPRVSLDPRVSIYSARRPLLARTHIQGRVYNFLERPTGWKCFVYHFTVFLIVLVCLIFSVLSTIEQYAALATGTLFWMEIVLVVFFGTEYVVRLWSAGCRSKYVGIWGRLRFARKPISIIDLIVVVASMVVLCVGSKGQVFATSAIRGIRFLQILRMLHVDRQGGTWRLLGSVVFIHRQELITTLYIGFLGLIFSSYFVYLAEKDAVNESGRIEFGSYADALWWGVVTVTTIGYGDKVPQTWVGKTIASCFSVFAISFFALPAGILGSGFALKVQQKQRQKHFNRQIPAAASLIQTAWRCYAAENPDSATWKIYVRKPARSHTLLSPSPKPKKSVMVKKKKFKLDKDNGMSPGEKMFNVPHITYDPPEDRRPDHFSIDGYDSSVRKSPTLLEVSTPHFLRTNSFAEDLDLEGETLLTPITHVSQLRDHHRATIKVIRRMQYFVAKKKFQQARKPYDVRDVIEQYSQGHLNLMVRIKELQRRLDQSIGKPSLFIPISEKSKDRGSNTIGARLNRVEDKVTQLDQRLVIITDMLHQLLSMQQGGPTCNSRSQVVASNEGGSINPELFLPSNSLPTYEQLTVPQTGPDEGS
UniProt Q01815: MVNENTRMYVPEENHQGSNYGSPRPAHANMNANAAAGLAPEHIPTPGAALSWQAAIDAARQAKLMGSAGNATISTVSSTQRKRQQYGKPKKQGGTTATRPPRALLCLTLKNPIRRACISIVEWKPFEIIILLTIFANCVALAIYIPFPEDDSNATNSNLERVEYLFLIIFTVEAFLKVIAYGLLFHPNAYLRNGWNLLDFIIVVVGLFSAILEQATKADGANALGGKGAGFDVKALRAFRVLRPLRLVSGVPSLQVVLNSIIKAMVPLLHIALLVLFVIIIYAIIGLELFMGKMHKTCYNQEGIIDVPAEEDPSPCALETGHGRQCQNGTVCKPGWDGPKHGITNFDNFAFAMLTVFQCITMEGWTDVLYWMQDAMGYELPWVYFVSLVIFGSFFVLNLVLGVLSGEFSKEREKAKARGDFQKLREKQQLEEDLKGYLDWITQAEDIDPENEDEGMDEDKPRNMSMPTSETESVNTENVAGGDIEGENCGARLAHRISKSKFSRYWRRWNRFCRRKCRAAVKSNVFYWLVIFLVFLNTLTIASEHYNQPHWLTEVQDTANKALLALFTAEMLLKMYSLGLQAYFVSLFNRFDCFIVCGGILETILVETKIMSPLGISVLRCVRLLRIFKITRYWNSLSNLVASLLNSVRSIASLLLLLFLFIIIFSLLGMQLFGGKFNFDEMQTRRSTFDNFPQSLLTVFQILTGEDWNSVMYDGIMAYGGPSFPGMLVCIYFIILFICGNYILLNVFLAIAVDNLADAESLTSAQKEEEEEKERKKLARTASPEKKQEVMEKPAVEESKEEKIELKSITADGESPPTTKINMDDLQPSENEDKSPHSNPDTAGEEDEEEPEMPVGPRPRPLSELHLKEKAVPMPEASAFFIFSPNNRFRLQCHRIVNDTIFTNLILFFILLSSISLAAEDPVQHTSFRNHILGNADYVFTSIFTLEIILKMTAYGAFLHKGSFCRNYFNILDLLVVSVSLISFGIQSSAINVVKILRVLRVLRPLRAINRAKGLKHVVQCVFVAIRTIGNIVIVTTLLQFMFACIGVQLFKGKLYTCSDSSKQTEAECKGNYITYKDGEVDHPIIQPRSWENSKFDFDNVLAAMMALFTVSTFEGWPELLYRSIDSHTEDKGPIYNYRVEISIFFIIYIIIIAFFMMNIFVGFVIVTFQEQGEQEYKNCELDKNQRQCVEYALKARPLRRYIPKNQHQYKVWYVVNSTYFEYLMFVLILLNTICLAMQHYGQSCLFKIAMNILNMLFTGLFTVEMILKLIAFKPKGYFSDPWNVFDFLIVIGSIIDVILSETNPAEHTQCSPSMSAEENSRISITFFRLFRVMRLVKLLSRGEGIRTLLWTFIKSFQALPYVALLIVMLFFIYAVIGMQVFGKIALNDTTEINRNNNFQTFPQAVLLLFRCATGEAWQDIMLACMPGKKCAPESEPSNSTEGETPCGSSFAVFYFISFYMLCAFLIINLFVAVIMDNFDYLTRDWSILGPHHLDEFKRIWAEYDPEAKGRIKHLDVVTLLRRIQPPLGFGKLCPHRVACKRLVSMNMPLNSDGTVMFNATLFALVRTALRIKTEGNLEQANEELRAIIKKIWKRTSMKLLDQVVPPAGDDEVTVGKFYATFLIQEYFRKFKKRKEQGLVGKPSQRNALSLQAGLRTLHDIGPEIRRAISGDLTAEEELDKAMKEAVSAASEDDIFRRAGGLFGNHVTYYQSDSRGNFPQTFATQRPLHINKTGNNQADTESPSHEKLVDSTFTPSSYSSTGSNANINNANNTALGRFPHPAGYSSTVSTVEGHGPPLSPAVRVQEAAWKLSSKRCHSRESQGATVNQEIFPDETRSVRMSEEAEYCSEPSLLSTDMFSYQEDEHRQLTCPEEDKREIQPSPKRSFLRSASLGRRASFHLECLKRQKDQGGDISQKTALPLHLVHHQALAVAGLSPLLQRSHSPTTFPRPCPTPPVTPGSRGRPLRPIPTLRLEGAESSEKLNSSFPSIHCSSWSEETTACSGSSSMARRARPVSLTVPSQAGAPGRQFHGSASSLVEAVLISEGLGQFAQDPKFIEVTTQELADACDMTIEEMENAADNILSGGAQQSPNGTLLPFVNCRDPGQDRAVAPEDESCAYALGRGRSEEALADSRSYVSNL
UniProt O35219: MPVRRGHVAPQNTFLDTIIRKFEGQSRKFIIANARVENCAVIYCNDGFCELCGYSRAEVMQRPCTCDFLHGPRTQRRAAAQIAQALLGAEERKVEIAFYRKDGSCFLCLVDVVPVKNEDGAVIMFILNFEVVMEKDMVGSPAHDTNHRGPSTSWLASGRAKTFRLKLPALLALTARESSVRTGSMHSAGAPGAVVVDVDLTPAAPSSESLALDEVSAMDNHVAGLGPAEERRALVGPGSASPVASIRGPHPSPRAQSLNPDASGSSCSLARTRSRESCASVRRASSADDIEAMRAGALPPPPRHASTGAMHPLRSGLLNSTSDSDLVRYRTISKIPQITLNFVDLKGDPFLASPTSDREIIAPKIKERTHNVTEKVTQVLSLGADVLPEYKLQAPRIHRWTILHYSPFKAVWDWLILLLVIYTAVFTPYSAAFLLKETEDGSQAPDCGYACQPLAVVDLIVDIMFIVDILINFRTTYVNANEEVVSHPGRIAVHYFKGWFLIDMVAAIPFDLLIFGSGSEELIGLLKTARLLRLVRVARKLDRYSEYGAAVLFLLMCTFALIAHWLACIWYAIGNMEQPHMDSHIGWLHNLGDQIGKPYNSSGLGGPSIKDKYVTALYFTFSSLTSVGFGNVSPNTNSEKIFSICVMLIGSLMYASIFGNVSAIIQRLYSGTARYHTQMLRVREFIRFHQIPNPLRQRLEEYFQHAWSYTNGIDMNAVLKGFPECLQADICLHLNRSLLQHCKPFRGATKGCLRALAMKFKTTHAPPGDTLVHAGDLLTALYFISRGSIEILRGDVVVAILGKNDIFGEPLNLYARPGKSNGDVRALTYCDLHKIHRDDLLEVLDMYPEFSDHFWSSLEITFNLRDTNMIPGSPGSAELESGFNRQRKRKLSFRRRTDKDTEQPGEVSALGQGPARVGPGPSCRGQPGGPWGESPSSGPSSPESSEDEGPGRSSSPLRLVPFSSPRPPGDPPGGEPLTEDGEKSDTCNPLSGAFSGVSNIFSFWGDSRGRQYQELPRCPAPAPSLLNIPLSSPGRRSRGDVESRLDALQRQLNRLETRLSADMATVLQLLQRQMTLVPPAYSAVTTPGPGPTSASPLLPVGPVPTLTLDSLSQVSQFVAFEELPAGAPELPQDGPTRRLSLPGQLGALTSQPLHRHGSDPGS

These are yes or no findings as the source states them, for the method shown. In cells and extracts the contact can be indirect. These calls come from enrichment with a bait or labelling near it, and not all partners need be listed.

What all share (experiment): affinity purification with mass spectrometry; IP of the endogenous channel with 2 µg channel antibody from 3 mg membrane-enriched mouse heart lysate (1% NP-40, 1% sodium deoxycholate), overnight at 4 °C, Dynabeads Protein G, quadruplicate; LC-MS/MS; significant interactors against control by volcano plot
For assay [1], the target named is T1, Kcnj2 (Kir2.1) (mouse (endogenous in murine cardiac tissue)) (UniProt P35561).
T1 sequence: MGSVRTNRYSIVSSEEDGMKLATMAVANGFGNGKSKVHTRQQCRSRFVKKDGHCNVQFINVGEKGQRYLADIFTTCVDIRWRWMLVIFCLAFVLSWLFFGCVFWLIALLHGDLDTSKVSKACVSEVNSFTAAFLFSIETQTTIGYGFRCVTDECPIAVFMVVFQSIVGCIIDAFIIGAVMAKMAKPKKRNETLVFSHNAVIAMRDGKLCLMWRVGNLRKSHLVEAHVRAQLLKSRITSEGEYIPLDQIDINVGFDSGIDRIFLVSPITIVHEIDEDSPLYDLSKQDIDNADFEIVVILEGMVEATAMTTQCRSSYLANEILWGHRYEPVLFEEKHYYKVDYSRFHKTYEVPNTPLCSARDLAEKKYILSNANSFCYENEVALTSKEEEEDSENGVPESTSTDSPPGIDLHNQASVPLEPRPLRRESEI

The target of assay [2] is Scn5a (Nav1.5) (mouse (endogenous in murine cardiac tissue)) (UniProt Q9JJV9).
Assay [3] has as its target Kcnq1 (Kv7.1/Kcnq1) (mouse (endogenous in murine cardiac tissue)) (UniProt P97414).
Assay [4] has as its target Gja1 (Cx43) (mouse (endogenous in murine cardiac tissue)), P23242. The conditions noted are these: remark: other sources report otherwise.
The target of assay [5] is Cacna1c (Cav1.2) (mouse (endogenous in murine cardiac tissue)) (UniProt Q01815).
In assay [6] the target is T2, Kcnj3 (Kir3.1) (mouse (endogenous in murine cardiac tissue)) (UniProt P63250).
T2 sequence: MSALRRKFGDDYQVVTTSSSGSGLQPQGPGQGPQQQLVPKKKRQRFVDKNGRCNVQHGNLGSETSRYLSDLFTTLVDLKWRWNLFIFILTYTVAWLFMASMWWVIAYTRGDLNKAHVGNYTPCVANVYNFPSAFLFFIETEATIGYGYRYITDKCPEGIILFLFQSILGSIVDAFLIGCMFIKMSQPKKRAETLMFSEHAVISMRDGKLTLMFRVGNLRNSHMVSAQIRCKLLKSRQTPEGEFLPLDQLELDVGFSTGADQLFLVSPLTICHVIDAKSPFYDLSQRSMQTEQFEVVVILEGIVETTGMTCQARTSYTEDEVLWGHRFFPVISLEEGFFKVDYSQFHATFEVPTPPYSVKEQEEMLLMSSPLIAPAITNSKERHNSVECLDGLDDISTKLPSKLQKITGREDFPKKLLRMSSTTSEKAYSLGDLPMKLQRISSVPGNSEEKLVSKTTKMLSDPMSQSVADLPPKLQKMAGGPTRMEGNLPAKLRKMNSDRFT

Assay [7] addresses Kcnh2 (Kv11.1/ERG) (mouse (endogenous in murine cardiac tissue)) (UniProt O35219).

B1: Mpp7 (protein, UniProt Q8BVD5 1-576)
chain: MPALATGSACDMGLYELLAALPAQLQPHVDSQEDLTFLWDVFGEKSLHSLVKIHEKLHCYEKQNPLPILHGAAALADDLTEELQNKLPNSEIRELLKLLSKPNVKALLSVHDTVAQKSYDPVLPPVPDDIDDEEDSVKIIRLVKNSEPLGATIKKDEQTGAITVARIMRGGAADRSGLIHVGDELREVNGIPVEDKRPEEIIKILSQSKGAITFKIIPSTKEETPSKEGKIFIKALFDYDPKEDKAIPCKEAGLSFRKGDILQIMSQDDVTWWQAKHEGDANPRAGLIPSKHFQERRLALRRPEIVVQPLKLSNTKSSGFRRSFRLSRKNKKINKSMYECKKSEQYDTADVPTYEEVTPYRRQIHDKYRLIVLVGPVGVGLNELKRKLLMSDAQHYGVIVPHTTRARRSQESDGVEYIFISKHLFETDVQINKFIEYGEYKNNYYGTSIDSVRSVLAKNKVCLLDVQPHTVKHLRTLEFKPYVIFIKPPSIERLRETRKNAKIISSRDDQGTAKPFTEEDFQEMIKSAQIMESQYGHLFDKIIINDDLTVAFNELKTTFDKLETDTHWVPVSWLHS
Consider B1, for which the binding entry in assay [1] is reported as “binds”.

B2: Glipr2 (protein, UniProt Q9CYL5 1-154)
chain: MGKSASKQFNNEVLKAHNEYRAQHGVPPLKLCKKLNREAQQYSEALASTRILKHSPESSRGQCGENLAWASYDQTGKDVADRWYSEIKSYNFQQPGFTSGTGHFTAMVWKNTKKIGVGKASASDGSSFVVARYFPAGNIVNQGFFEENVPPPKK
Regarding B2, in assay [2], the binding entry is “binds”.

B3: Nebl (protein, UniProt Q0II04 1-452)
chain: MKVPVSGDVKEETEEENVEQEENQEAKVSLKPVIEDLSMELARKCTELISDIHYKEEYKKSKDKCTFVTDTPMLNHVKNIGAFISEAKYKGTIKADLSNCLYKDMPATIDSVFAREVSQLQSEVAYKQKHEAEKGFSDYTHMKEPPEVRRAMEVNRHQSNISYRKDMQGTHTYTAELDRPDIKKATQISKIISDAEYKKGQGIVNKEPSVIGRPDFEHAVGASKLSSQVKYKEKFDNEMKEKSHHYNPLGSAFFRQHQFAAVLASDWEYKRDFEENKGLYHFDAEAPEHLHHKGNATLQSQVKYREEYEKNKGKSMLEFVETPSYQSSKEAQKMQSEKVYKEDFEKEIKGRSSLDLDKTPAFLHVKHITNLMREKEYKKDLENEIKGKGMELSSEVLDIQRAKRASEMASEKDYKRDLETEIKGKGMQVSTDTLDVQRAKRASEMASQVRMV
For B3, in assay [3], the binding result is recorded as “binds”.

B4: epsin-2 (Epn2) (protein, UniProt Q8CHU3 1-595)
chain: MTTSSIRRQMKNIVNNYSEAEIKVREATSNDPWGPSSSLMTEIADLTYNVVAFSEIMSMVWKRLNDHGKNWRHVYKALTLLDYLIKTGSERVAQQCRENIFAIQTLKDFQYIDRDGKDQGINVREKSKQLVALLKDEERLKVERVQALKTKERMAQVATGVGSNQITFGRGSSQPNLSTSYSEQEYGKAGGSPASYHGSTSPRVSSELEQARPQTSGEEELQLQLALAMSREVAEQSSESVQTARGSKEERLRRGDDLRLQMALEESRRDTVKVPKKKEAKACCKPGSHSQQTTLLDLMDALPSSGPVTQKTEPWSAGASANQTNPWGGTVAPSNITDPWPSFGTKPAASVDPWGVPTTASTQSVPKNSDPWAASQQPASNAGKTTDAWGAAKPSSASGSFELFSNFNGTVKDDFSEFDNLRTSKKPAESGASVPPQDSRTTSPDLFESQSLTSASSKPSSARKTPESFLGPNAALVNLDSLVTKPAPPAQSLNPFLAPGAAAPAPVNPFQVNQPQPLTLNQLRGSPVLGSSASFGSGPGVETVAPMTSVAPHSSVGASGSSLTPLGPTAMNMVGSVGIPPSAAQSTGTTNPFLL
As to B4, the binding entry in assay [2] is recorded as “binds”.

B5: Pln, P61014 1-52 (protein)
chain: MEKVQYLTRSAIRRASTIEMPQQARQNLQNLFINFCLILICLLLICIIVMLL
Regarding B5, in assay [4], the binding result is reported as “binds”.

B6: Pln (protein, UniProt P61014 1-52)
chain: B5 chain
With B6, the binding entry in assay [5] is “binds”.

B7: Flot2 (protein, UniProt Q60634 1-428)
chain: MGNCHTVGPNEALVVSGGCCGSDYKQYVFGGWAWAWWCISDTQRISLEIMTLQPRCEDVETAEGVALTVTGVAQVKIMTEKELLAVACEQFLGKNVQDIKNVVLQTLEGHLRSILGTLTVEQIYQDRDQFAKLVREVAAPDVGRMGIEILSFTIKDVYDKVDYLSSLGKTQTAVVQRDADIGVAEAERDAGIREAECKKEMLDVKFMADTKIADSKRAFELQKSAFSEEVNIKTAEAQLAYELQGAREQQKIRQEEIEIEVVQRKKQIAVEAQEILRTDKELIATVRRPAEAEAHRIQQIAEGEKVKQVLLAQAEAEKIRKIGEAEAAVIEAMGKAEAERMKLKAEAYQKYGDAAKMALVLEALPQIAAKISAPLTKVDEIVVLSGDNSKVTSEVNRLLAELPASVHALTGVDLSKIPLIKNATGAQV
Regarding B7, in assay [1], the binding result is listed as “binds”.

B8: Synpo2l (protein, UniProt Q8BWB1 1-975)
chain: MGAEEEVQVTLAGGAPWGFRLQGGTEQRKPLQIRRRSQAGRAGLRERDQLLAINGVSCTNFSHASAMTLIDASGRQLVLTVRRVTDEGSVRSPSPGELQVLSPLSPLSPEPPGAPVSQALQPTSLRSPPDSEAYYGETDSDVDGPATQEKPRRTRRRGPARPSLPGAPPDEVYLSDSPAEPAPVKTGSPSQGDSRVSSPSWEEGAALQPPPAEALLLPHGPLRPGPHLIPMVGPVPHPVAEDLTTTYTQKAKQAKLQRAESLQEKSVKEARTKCRTIASLLTAAPNPHSKGVLMFKKRRQRAKKYTLVSFGAAAGTGTEEEDGIPPTSESELDEETFSDARSLTNQSDWDSPYLDMELARAGLGTAESQNSGLGGQLSEVSGRGVQLFEQQRQRVASSSQELAQVGPAAMLNGQSLQSPPRAQSAPPEAAVLPLSPLSVPAVSPTPFFPDGGAPIPAPSIFNRSARPFTPGLQGQRSGTTSVIFRPLAPKKVNEGLGSTSPAPSPFAAPPQGPTPLPSFTTVVPSHTPVSGASSSTQRSSGPVTATSSLYIPAPSRPVTPGGAPEPPTPPSAAAMTSTASIFLSTPLRNSARPEAPGPAVPEPASVREQRISVPAARTGILQEARRRGTRKQMFRPGKEETKNSPNPELLSLVQNLDEKPRAGGAESGPEEDALSLGAEACNFMQPLGGRSYKTLPQVSPKTPPPMAPKTPPPTTPKTPPPVAPKPGSRGLLDGLVNGSTPMVGIPEPPRLQGRGGELFAKRQSRADRYVVEATSGSSLNPGLRPRSPSPTPSLPPSWKYSPNIRAPPPIAYNPLLSPFFPQAARTLPNKAQSQGPRVTPKQGIKALDFMRHQPYQLKTAMFCFDEGSSTPGPTSGPPKTARVQEIRRFSTPAPQPTAEPLAPTVLVPRAATTLDEPIWRAELASTPVPNPDHQESLRSFAAAPSSCGFQVARPRFSATRTGLQAHVWRPGAGHQ
Turning to B8, the binding entry in assay [3], in assay [6] and in assay [7] was “binds” each time.
